Measured values reported in the supplement of paper PMC8728848.
This is one part of the list.

Legend:
Assay in all cases: glycan array binding signal (z-score within array); higher = stronger binding
Details in all cases: glycan notation: IUPAC condensed, linker removed
[1] = target: Man(a1-2)Man(a1-3)[Man(a1-2)Man(a1-6)]Man
In short: (§1)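 The Consortium for Functional Glycomics database supplied 3228 glycan arrays, of which those lacking an available protein sequence were dropped. The binding signal, a within-array Z-score, was averaged across arrays of the same protein sequence and across linkers. Negative scores can be read as non-binding.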

[2] = target: Man(a1-2)Man(a1-3)[Man(a1-2)Man(a1-6)]Man(a1-6)[Man(a1-2)Man(a1-2)Man(a1-3)]Man
In short: as §1

[3] = target: Man(a1-2)Man(a1-3)[Man(a1-2)Man(a1-6)]Man(a1-6)[Man(a1-2)Man(a1-2)Man(a1-3)]Man(b1-4)GlcNAc(b1-4)GlcNAc
In short: as §1

[4] = target: Man(a1-2)Man(a1-3)[Man(a1-6)]Man(a1-6)[Man(a1-2)Man(a1-3)]Man(b1-4)GlcNAc(b1-4)GlcNAc
In short: as §1

[5] = target: Man(a1-2)Man(a1-6)[Man(a1-3)]Man(a1-6)[Man(a1-2)Man(a1-2)Man(a1-3)]Man
In short: as §1

[6] = target: Man(a1-2)Man(a1-6)[Man(a1-3)]Man(a1-6)[Man(a1-2)Man(a1-2)Man(a1-3)]Man(b1-4)GlcNAc(b1-4)GlcNAc
In short: as §1

Man(a1-3)[Man(a1-6)]Man = target: Man(a1-3)[Man(a1-6)]Man
In short: as §1

[7] = target: Man(a1-3)[Man(a1-6)]Man(a1-6)[Man(a1-2)Man(a1-3)]Man(b1-4)GlcNAc(b1-4)GlcNAc
In short: as §1

[8] = target: Man(a1-3)[Man(a1-6)]Man(a1-6)[Man(a1-3)]Man
In short: as §1

[9] = target: Man(a1-3)[Man(a1-6)]Man(a1-6)[Man(a1-3)]Man(b1-4)GlcNAc(b1-4)GlcNAc
In short: as §1

[10] = target: Man(a1-3)[Man(a1-6)]Man(b1-4)GlcNAc(b1-4)GlcNAc
In short: as §1

[11] = target: Man(a1-3)[Man(a1-6)]Man(b1-4)GlcNAc(b1-4)[Fuc(a1-6)]GlcNAc
In short: as §1

Man(a1-6)Man = target: Man(a1-6)Man
In short: as §1

Man(b1-4)GlcNAc = target: Man(b1-4)GlcNAc
In short: as §1

MurNAc(b1-4)GlcNAc = target: MurNAc(b1-4)GlcNAc
In short: as §1

Neu5Ac(a2-3)Gal = target: Neu5Ac(a2-3)Gal
In short: as §1

[12] = target: Neu5Ac(a2-3)Gal(b1-3)GalNAc
In short: as §1

[13] = target: Neu5Ac(a2-3)Gal(b1-3)GalNAc(b1-3)Gal(a1-4)Gal(b1-4)Glc
In short: as §1

[14] = target: Neu5Ac(a2-3)Gal(b1-3)GalNAc(b1-4)Gal(b1-4)Glc
In short: as §1

[15] = target: Neu5Ac(a2-3)Gal(b1-3)GalNAc(b1-4)[Neu5Ac(a2-3)]Gal(b1-4)Glc
In short: as §1

[16] = target: Neu5Ac(a2-3)Gal(b1-3)GalNAc(b1-4)[Neu5Ac(a2-8)Neu5Ac(a2-3)]Gal(b1-4)Glc
In short: as §1

[17] = target: Neu5Ac(a2-3)Gal(b1-3)GalNAc6S
In short: as §1

[18] = target: Neu5Ac(a2-3)Gal(b1-3)GlcNAc
In short: as §1

[19] = target: Neu5Ac(a2-3)Gal(b1-3)GlcNAc(b1-2)Man
In short: as §1

[20] = target: Neu5Ac(a2-3)Gal(b1-3)GlcNAc(b1-2)Man(a1-3)[GlcNAc(b1-4)][Neu5Ac(a2-3)Gal(b1-3)GlcNAc(b1-2)Man(a1-6)]Man(b1-4)GlcNAc(b1-4)GlcNAc
In short: as §1

[21] = target: Neu5Ac(a2-3)Gal(b1-3)GlcNAc(b1-2)Man(a1-3)[Neu5Ac(a2-3)Gal(b1-3)GlcNAc(b1-2)Man(a1-6)]Man(b1-4)GlcNAc(b1-4)GlcNAc
In short: as §1

[22] = target: Neu5Ac(a2-3)Gal(b1-3)GlcNAc(b1-2)[Neu5Ac(a2-3)Gal(b1-3)GlcNAc(b1-4)]Man(a1-6)[Neu5Ac(a2-3)Gal(b1-3)GlcNAc(b1-2)Man(a1-3)]Man(b1-4)GlcNAc(b1-4)GlcNAc
In short: as §1

[23] = target: Neu5Ac(a2-3)Gal(b1-3)GlcNAc(b1-3)Gal(b1-3)GlcNAc
In short: as §1

[24] = target: Neu5Ac(a2-3)Gal(b1-3)GlcNAc(b1-3)Gal(b1-4)GlcNAc
In short: as §1

[25] = target: Neu5Ac(a2-3)Gal(b1-3)GlcNAc(b1-3)GalNAc
In short: as §1

[26] = target: Neu5Ac(a2-3)Gal(b1-3)GlcNAc(b1-6)GalNAc
In short: as §1

[27] = target: Neu5Ac(a2-3)Gal(b1-3)GlcNAc6S
In short: as §1

[28] = target: Neu5Ac(a2-3)Gal(b1-3)[Fuc(a1-4)]GlcNAc
In short: as §1

[29] = target: Neu5Ac(a2-3)Gal(b1-3)[Fuc(a1-4)]GlcNAc(b1-3)Gal(b1-3)[Fuc(a1-4)]GlcNAc
In short: as §1

[30] = target: Neu5Ac(a2-3)Gal(b1-3)[Fuc(a1-4)]GlcNAc(b1-3)Gal(b1-4)[Fuc(a1-3)]GlcNAc
In short: as §1

[31] = target: Neu5Ac(a2-3)Gal(b1-3)[GlcNAc(b1-6)]GalNAc
In short: as §1

[32] = target: Neu5Ac(a2-3)Gal(b1-3)[Neu5Ac(a2-6)]GalNAc
In short: as §1

[33] = target: Neu5Ac(a2-3)Gal(b1-3)[Neu5Ac(a2-6)]GlcNAc(b1-3)[Fuc(a1-3)[Gal(b1-4)]GlcNAc(b1-6)]Gal(b1-4)Glc
In short: as §1

[34] = target: Neu5Ac(a2-3)Gal(b1-3)]Neu5Ac(a2-3)Gal(b1-4)]GlcNAc
In short: as §1

Neu5Ac(a2-3)Gal(b1-4)Glc = target: Neu5Ac(a2-3)Gal(b1-4)Glc
In short: as §1

[35] = target: Neu5Ac(a2-3)Gal(b1-4)GlcNAc
In short: as §1

[36] = target: Neu5Ac(a2-3)Gal(b1-4)GlcNAc(b1-2)Man
In short: as §1

[37] = target: Neu5Ac(a2-3)Gal(b1-4)GlcNAc(b1-2)Man(a1-3)[GlcNAc(b1-4)][Neu5Ac(a2-3)Gal(b1-4)GlcNAc(b1-2)Man(a1-6)]Man(b1-4)GlcNAc(b1-4)GlcNAc
In short: as §1

[38] = target: Neu5Ac(a2-3)Gal(b1-4)GlcNAc(b1-2)Man(a1-3)[Neu5Ac(a2-3)Gal(b1-4)GlcNAc(b1-2)Man(a1-6)]Man(b1-4)GlcNAc(b1-4)GlcNAc
In short: as §1

[39] = target: Neu5Ac(a2-3)Gal(b1-4)GlcNAc(b1-2)Man(a1-3)[Neu5Ac(a2-3)Gal(b1-4)GlcNAc(b1-2)Man(a1-6)]Man(b1-4)GlcNAc(b1-4)[Fuc(a1-6)]GlcNAc
In short: as §1

B1: cFel (Cyprinus carpio), P68512 (protein)
chain: LDCTVIDGNLKQIDAGSGSVVGVNNLNETFVLIDNVFTKISGSLKHFSVGPAGQLGVNTANNIFKYQSGGFVQLAGLLKQVDAGGDQIIAGVNMYDDIYCLNMDANNKWPSSNTPWVQINGKLKYYSCGPYSCWGVNSNDQIFIMKDVSSNVCSGSGSFINIPGLLSMIEVATDGSVFGVNSQGNLYQRTGVTRSKPDGTDWISMVACPNGHKHVSFDLGVLWLVCVDGSIRKCILTD
Question: How did the “glycan array binding signal (z-score)” value [1] turn out when B1 was run?
Answer: -0.303

Question: And the “glycan array binding signal (z-score)” value [2]?
Answer: 0.373

Question: What about the “glycan array binding signal (z-score)” value [3] of the same binder?
Answer: -0.87

Question: What about the “glycan array binding signal (z-score)” value [4] of the same binder?
Answer: -0.971

Question: What about the “glycan array binding signal (z-score)” value [5] of the same binder?
Answer: -0.113

Question: And the “glycan array binding signal (z-score)” value [6]?
Answer: 0.148

Question: What about the “glycan array binding signal (z-score)” value (Man(a1-3)[Man(a1-6)]Man) of the same binder?
Answer: 0.695

Question: What about the “glycan array binding signal (z-score)” value [7] of the same binder?
Answer: 0.309

Question: What about the “glycan array binding signal (z-score)” value [8] of the same binder?
Answer: 1.62

Question: What about the “glycan array binding signal (z-score)” value [9] of the same binder?
Answer: -0.914

Question: And the “glycan array binding signal (z-score)” value [10]?
Answer: -0.514

Question: What about the “glycan array binding signal (z-score)” value [11] of the same binder?
Answer: 1.72

Question: What about the “glycan array binding signal (z-score)” value (Man(a1-6)Man) of the same binder?
Answer: -0.548

Question: And the “glycan array binding signal (z-score)” value (Man(b1-4)GlcNAc)?
Answer: -1.25

Question: And the “glycan array binding signal (z-score)” value (MurNAc(b1-4)GlcNAc)?
Answer: -0.194

Question: And the “glycan array binding signal (z-score)” value (Neu5Ac(a2-3)Gal)?
Answer: 0.009

Question: And the “glycan array binding signal (z-score)” value [12]?
Answer: -0.963

Question: And the “glycan array binding signal (z-score)” value [13]?
Answer: 0.195

Question: What about the “glycan array binding signal (z-score)” value [14] of the same binder?
Answer: 0.6

Question: And the “glycan array binding signal (z-score)” value [15]?
Answer: -0.299

Question: What about the “glycan array binding signal (z-score)” value [16] of the same binder?
Answer: -0.349

Question: What about the “glycan array binding signal (z-score)” value [17] of the same binder?
Answer: -0.772

Question: And the “glycan array binding signal (z-score)” value [18]?
Answer: -0.487

Question: And the “glycan array binding signal (z-score)” value [19]?
Answer: -0.6

Question: And the “glycan array binding signal (z-score)” value [20]?
Answer: -1.25

Question: And the “glycan array binding signal (z-score)” value [21]?
Answer: -0.621

Question: And the “glycan array binding signal (z-score)” value [22]?
Answer: 0.972

Question: And the “glycan array binding signal (z-score)” value [23]?
Answer: 2.55

Question: And the “glycan array binding signal (z-score)” value [24]?
Answer: -1.02

Question: What about the “glycan array binding signal (z-score)” value [25] of the same binder?
Answer: -0.617

Question: And the “glycan array binding signal (z-score)” value [26]?
Answer: 0.945

Question: And the “glycan array binding signal (z-score)” value [27]?
Answer: -0.503

Question: And the “glycan array binding signal (z-score)” value [28]?
Answer: 0.133

Question: And the “glycan array binding signal (z-score)” value [29]?
Answer: -0.15

Question: And the “glycan array binding signal (z-score)” value [30]?
Answer: -0.196

Question: And the “glycan array binding signal (z-score)” value [31]?
Answer: 0.319

Question: What about the “glycan array binding signal (z-score)” value [32] of the same binder?
Answer: 0.018

Question: What about the “glycan array binding signal (z-score)” value [33] of the same binder?
Answer: -0.734

Question: What about the “glycan array binding signal (z-score)” value [34] of the same binder?
Answer: -0.915

Question: And the “glycan array binding signal (z-score)” value (Neu5Ac(a2-3)Gal(b1-4)Glc)?
Answer: -0.551

Question: What about the “glycan array binding signal (z-score)” value [35] of the same binder?
Answer: -0.785

Question: What about the “glycan array binding signal (z-score)” value [36] of the same binder?
Answer: 0.574

Question: And the “glycan array binding signal (z-score)” value [37]?
Answer: 3.12

Question: And the “glycan array binding signal (z-score)” value [38]?
Answer: 0.925

Question: What about the “glycan array binding signal (z-score)” value [39] of the same binder?
Answer: 0.815
